Binding data for three molecules are collected here from PMC11425221.

The chains behind the UniProt entries cited, without tags or fusion partners. Where a name states a change or a piece, a line headed by the entry shows the natural chain unless it says otherwise. Residues count along the entry.
UniProt P31749: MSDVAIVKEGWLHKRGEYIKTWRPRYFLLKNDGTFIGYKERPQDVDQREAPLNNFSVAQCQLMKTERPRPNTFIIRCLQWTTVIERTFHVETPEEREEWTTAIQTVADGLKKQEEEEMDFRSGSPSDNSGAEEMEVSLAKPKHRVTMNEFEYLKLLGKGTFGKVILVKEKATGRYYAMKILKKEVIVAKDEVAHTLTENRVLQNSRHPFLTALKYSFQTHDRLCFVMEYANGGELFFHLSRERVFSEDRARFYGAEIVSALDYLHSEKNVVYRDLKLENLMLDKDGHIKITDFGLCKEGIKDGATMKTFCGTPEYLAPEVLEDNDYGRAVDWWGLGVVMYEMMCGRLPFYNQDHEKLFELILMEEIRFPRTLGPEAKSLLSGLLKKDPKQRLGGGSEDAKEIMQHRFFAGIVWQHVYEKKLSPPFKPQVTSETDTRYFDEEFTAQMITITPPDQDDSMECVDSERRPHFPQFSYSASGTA
AKT1 kinase domain: residues 150-408 of P31749

For assay [1], the target named is AKT1 (endogenous, R-MCF7 cells) (human (endogenous in R-MCF7)) (UniProt P31749). Nature of the assay: co-IP; endogenous proteins from R-MCF7 cells treated with 2 µg/mL HT-DNA (6 or 12 h); with or without 2 µM MK2206 pretreatment (Figure 4C, 4I) or siAKT1 knockdown (Figure 4H).
Assay [2] concerns the target T1, IRF3 (endogenous, R-MCF7 cells) (human (endogenous in R-MCF7)) (UniProt Q14653).
T1 sequence: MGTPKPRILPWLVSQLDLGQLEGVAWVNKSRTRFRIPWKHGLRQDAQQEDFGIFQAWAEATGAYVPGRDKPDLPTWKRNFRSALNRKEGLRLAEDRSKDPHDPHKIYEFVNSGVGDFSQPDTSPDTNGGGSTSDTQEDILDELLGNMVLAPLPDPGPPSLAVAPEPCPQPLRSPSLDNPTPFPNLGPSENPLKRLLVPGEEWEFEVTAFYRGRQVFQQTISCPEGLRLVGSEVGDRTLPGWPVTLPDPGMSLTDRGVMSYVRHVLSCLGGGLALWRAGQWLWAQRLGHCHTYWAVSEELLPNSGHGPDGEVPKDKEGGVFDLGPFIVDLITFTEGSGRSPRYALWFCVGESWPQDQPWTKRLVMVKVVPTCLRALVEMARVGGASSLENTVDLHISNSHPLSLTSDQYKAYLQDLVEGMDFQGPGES
Described as above.

Assay [3] has as its target SFB-tagged full-length (FL) AKT1 (UniProt P31749). The experiment in a line: co-IP; domain mapping with transfected tagged constructs (SFB-AKT1 and AKT1 truncations; Myc-TBK1 kinase domain and TBK1 truncations); in Figure 4F HEK-293T cells, with or without 2 µM MK2206 for 6 h, SFB-AKT1 immunoprecipitated with FLAG antibody.
Another assay has as its target AKT1 kinase domain (UniProt P31749). The description is as above.
Another assay deals with T2, Myc-TBK1 (UniProt Q9UHD2).
T2 sequence: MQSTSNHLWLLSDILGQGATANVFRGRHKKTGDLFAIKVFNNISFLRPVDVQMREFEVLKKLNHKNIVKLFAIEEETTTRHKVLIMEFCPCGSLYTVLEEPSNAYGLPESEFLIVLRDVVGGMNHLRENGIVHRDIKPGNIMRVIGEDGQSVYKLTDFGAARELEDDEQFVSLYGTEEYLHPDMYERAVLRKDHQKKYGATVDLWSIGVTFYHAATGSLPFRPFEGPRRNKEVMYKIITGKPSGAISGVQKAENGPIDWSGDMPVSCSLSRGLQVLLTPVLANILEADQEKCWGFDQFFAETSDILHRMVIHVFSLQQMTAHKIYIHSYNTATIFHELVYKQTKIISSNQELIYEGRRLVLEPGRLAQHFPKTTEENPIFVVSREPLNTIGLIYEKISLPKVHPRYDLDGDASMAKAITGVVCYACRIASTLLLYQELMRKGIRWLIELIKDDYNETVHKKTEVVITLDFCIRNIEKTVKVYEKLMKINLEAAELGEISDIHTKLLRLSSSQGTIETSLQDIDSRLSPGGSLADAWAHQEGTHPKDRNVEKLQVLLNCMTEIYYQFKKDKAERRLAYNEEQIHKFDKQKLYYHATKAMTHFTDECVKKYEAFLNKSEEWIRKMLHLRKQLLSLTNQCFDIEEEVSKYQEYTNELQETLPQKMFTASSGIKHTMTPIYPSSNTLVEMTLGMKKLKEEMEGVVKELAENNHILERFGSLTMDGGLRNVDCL
The experiment in a line: co-IP; HEK293T cells cotransfected for 48 h with Myc-TBK1, GFP-IRF3, FLAG-STING and AKT1-MYR-HA or AKT1-DN-HA; Myc-TBK1 immunoprecipitated with Myc antibody.

These are yes or no findings as the source states them, for the method shown. Binding seen in cells or lysates may run through a third protein. Some results given as binding are weak or reduced against the parent protein; the word gives no strength. For some assays here: Sequences can lack the tags named with a protein.

B1: TBK1 (endogenous, R-MCF7 cells) (enzyme, UniProt Q9UHD2 1-729)
chain: T2 sequence
For B1, the binding entry in assay [1] and in assay [2] was “binds” each time.

B2: Myc-tagged TBK1 kinase domain (1-299) (domain or fragment, UniProt Q9UHD2 1-299)
chain: MQSTSNHLWLLSDILGQGATANVFRGRHKKTGDLFAIKVFNNISFLRPVDVQMREFEVLKKLNHKNIVKLFAIEEETTTRHKVLIMEFCPCGSLYTVLEEPSNAYGLPESEFLIVLRDVVGGMNHLRENGIVHRDIKPGNIMRVIGEDGQSVYKLTDFGAARELEDDEQFVSLYGTEEYLHPDMYERAVLRKDHQKKYGATVDLWSIGVTFYHAATGSLPFRPFEGPRRNKEVMYKIITGKPSGAISGVQKAENGPIDWSGDMPVSCSLSRGLQVLLTPVLANILEADQEKCWGFDQFF
B2: the binding result (in assay [3]; with AKT1 kinase domain) was “binds” throughout.

B3: GFP-IRF3 (protein, UniProt Q14653 1-427)
chain: T1 sequence
For B3, the binding entry with Myc-TBK1 is “binds”.
